These are yes or no findings as the source states them, for the method shown. Binding calls can cover weak binding; strength is not graded here.
Biological target: PuBZR1-His (pear (Pyrus ussuriensis))
Assay: pull-down

- binding: binds
Substance: PuACO1-GST (from UniProt A0A4D5XEA0) (enzyme)

Reference: article doi:10.1101/2020.02.27.968800
